Test results: patent US12642270B2, “Substituted thiophene carboxamides, thiophene carboxylic acids and derivatives thereof” (Bayer Aktiengesellschaft, priority 2019, dated 2026)
Some entries share one result that the patent states for a list of compounds.

Tests used:
[1] = test system: salicylate responsive promoter sequence of the PR1 (pathogenesis-related protein I) gene (AT2G14610); assay: Example K: induction of defense gene expression in Arabidopsis thaliana (PR1 promoter-GFP reporter plants), formula (II); assay type: in vivo; conditions: 3rd day after spraying, mock treated leaves = 1.00
Experimental: Arabidopsis thaliana reporter plants containing the coding sequence of a green fluorescent protein (GFP) linked to the salicylate responsive promoter sequence of the PR1 (pathogenesis-related protein I) gene (AT2G14610) were grown for five days and then sprayed with compounds. On the 3rd day after spraying, plant fluorescence was assessed with a MacroFluo instrument from Leica Microsystems (Wetzlar, Germany). Fluorescences were quantified with the Meta-Morph Microscopy Automation & Image Analysis Software (Molecular Devices, Sunnyvale, Calif., United States).
Background fluorescence in mock treated leaves was set as 1.00.

[2] = test system: Colletotrichum lindemuthianum; assay: Example O: Colletotrichum lindemuthianum in vitro cell test, formula (II); assay type: cell-based; conditions: 6 days incubation
Experimental: • Solvent: DMSO • Culture medium: 14.6 g anhydrous D-glucose (VWR), 7.1 g Mycological Peptone (Oxoid), 1.4 g granulated Yeast Extract (Merck), QSP 1 liter • Inoculum: spores suspension Fungicides were solubilized in DMSO and the solution used to prepare the required range of concentrations. The final concentration of DMSO used in the assay was: ≤[…]1%. A spore suspension of C. lindemuthianum was prepared and diluted to the desired spore density. Fungicides were evaluated for their ability to inhibit spores germination and mycelium growth in liquid culture assay. The compounds were added in the desired concentration to the culture medium with spores. After 6 days incubation, fungi-toxicity of compounds was determined by spectrometric measurement of mycelium growth. Inhibition of fungal growth was determined by comparing the absorbance values in wells containing the fungicides with the absorbance in control wells without fungicides.

[3] = test system: Xanthomonas campestris pv. campestris; assay: Example P: Xanthomonas campestris pv. campestris in vitro cell test, formula (II); assay type: cell-based; conditions: 20 ppm of active ingredient, 24 h incubation
Experimental: • Solvent: DMSO • Culture medium: LB broth medium (Luria Broth Miller) Sigma • Inoculum: bacteria suspension
Compounds were solubilized in DMSO and the solution used to prepare the required range of concentrations. The final concentration of DMSO used in the assay was ≤1%.
Inoculum was prepared from a pre-culture of bacteria grown in liquid medium and diluted to the desired optical density (OD).
Compounds were evaluated for their ability to inhibit bacteria growth in liquid culture assay. The compounds were added in the desired concentrations to culture medium containing the bacteria suspension. After 24 h of incubation, the efficacy of compounds was determined by spectrometric measurement of bacteria growth. Inhibition was determined by comparing the absorbance values in wells containing the compounds with the absorbance in control wells without active ingredients.

Structure (SMILES) | relative fluorescence value ([1]; 75 ppm) | relative fluorescence value ([1]; 300 ppm) | efficacy (inhibition of fungal growth; no direct activity) ([2]; 10 ppm of active ingredient) [%] | efficacy (inhibition of fungal growth; no direct activity) ([2]; 20 ppm of active ingredient) [%] | efficacy (inhibition of bacteria growth; no direct activity) [3] [%]
COC(=O)c1sc(C#N)c(Br)c1Cl [II.080] | above 2 | above 2 | ≤ 30 | ≤ 30 | ≤ 30
O=C(O)c1cc(F)c(Br)s1 [II.039] | above 2 | above 2 | ≤ 30 | ≤ 30 | ≤ 30
COC(=O)c1sc(Cl)c(Br)c1F [II.025] | above 2 | above 2 | ≤ 30 | ≤ 30 | ≤ 30
CCOC(=O)c1sc(Cl)c(Br)c1C [II.032] | – | above 2 | ≤ 30 | ≤ 30 | ≤ 30
N#Cc1c(C(=O)O)sc(Cl)c1Br [II.083] | above 2 | above 2 | ≤ 30 | ≤ 30 | ≤ 30
Cc1c(C(=O)O)sc(C#N)c1Cl [II.016] | above 2 | above 2 | ≤ 30 | ≤ 30 | ≤ 30
COC(=O)c1sc(Br)c(C#N)c1C [II.029] | – | above 2 | ≤ 30 | ≤ 30 | ≤ 30
N#Cc1c(Br)sc(C(=O)O)c1Cl [II.001] | – | above 2 | ≤ 30 | ≤ 30 | ≤ 30
COC(=O)c1sc(Cl)c(Br)c1Br [II.026] | above 2 | above 2 | ≤ 30 | ≤ 30 | ≤ 30
N#Cc1sc(C(=O)O)cc1Cl [II.034] | – | above 2 | ≤ 30 | ≤ 30 | ≤ 30
O=C(O)c1sc(Cl)c(Br)c1Br [II.011] | above 2 | above 2 | ≤ 30 | ≤ 30 | ≤ 30
O=C(O)c1sc(Br)c(Br)c1C(F)(F)F [II.004] | above 2 | above 2 | ≤ 30 | ≤ 30 | ≤ 30
COC(=O)c1sc(Cl)c(Cl)c1C(F)F [II.023] | above 2 | above 2 | ≤ 30 | ≤ 30 | ≤ 30
COC(=O)c1sc(C#N)c(Cl)c1Cl [II.079] | above 2 | above 2 | ≤ 30 | ≤ 30 | ≤ 30
Cc1c(Cl)sc(C(=O)O)c1Cl [II.074] | – | above 2 | ≤ 30 | ≤ 30 | ≤ 30
